Source: the supplement of paper PMC10849652
Some of the results follow.

The chains behind the UniProt entries cited, without tags or fusion partners. Where a name states a change or a piece, a line headed by the entry shows the natural chain unless it says otherwise.
UniProt P51159: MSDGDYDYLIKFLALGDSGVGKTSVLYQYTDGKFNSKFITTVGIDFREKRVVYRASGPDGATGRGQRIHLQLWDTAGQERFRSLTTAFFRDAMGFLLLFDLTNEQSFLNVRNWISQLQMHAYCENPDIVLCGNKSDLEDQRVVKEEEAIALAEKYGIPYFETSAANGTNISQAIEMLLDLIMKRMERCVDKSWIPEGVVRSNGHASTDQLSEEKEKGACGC
UniProt Q6GYQ0: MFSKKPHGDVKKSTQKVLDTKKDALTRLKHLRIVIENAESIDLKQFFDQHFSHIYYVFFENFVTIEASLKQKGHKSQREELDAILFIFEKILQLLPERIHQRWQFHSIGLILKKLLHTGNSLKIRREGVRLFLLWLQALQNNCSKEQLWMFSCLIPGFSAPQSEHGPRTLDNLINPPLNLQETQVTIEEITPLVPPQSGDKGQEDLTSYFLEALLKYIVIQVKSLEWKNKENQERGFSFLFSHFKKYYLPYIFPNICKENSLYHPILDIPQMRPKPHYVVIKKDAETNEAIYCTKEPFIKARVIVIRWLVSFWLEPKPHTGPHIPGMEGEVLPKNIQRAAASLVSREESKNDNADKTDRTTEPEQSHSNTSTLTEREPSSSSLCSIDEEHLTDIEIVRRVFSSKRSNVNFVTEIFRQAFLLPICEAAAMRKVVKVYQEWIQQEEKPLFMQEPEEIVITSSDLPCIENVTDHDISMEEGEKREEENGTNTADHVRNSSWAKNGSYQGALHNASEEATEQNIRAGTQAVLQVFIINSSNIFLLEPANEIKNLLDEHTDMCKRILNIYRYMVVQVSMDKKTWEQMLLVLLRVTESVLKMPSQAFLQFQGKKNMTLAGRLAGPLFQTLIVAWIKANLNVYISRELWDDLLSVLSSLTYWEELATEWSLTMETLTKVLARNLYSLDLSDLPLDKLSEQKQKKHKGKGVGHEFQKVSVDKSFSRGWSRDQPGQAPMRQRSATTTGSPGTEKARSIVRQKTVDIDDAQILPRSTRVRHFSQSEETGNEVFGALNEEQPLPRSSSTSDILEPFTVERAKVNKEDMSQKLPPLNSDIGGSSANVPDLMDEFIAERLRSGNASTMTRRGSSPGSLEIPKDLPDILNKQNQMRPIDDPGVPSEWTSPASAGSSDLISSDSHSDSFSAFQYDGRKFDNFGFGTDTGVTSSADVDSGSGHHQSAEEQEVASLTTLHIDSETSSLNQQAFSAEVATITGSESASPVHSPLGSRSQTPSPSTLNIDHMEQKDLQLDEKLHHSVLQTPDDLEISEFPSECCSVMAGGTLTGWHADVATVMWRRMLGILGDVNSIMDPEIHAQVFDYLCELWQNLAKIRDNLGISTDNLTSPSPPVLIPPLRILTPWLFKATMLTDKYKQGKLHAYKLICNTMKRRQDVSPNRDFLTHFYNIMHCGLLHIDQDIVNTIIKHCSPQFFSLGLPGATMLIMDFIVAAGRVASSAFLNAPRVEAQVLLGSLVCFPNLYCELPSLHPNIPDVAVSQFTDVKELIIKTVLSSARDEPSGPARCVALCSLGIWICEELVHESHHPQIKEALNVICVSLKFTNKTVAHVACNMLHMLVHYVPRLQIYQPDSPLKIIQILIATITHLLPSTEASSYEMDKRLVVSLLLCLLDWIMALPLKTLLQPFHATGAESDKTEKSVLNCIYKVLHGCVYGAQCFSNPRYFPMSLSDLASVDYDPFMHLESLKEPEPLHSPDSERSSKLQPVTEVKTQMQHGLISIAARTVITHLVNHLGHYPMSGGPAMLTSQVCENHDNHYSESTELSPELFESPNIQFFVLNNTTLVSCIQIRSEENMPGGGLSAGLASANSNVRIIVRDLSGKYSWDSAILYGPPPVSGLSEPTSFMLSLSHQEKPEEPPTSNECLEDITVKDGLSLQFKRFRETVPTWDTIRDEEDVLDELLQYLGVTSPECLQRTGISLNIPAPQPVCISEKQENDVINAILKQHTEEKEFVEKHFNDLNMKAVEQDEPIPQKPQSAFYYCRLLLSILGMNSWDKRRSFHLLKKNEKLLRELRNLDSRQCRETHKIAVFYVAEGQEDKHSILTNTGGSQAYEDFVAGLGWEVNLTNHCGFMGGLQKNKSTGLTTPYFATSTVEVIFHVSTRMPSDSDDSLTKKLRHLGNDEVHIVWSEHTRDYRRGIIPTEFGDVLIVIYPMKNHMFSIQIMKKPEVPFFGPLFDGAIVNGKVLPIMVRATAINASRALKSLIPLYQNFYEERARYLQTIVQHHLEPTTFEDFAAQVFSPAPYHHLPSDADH
UniProt P06400: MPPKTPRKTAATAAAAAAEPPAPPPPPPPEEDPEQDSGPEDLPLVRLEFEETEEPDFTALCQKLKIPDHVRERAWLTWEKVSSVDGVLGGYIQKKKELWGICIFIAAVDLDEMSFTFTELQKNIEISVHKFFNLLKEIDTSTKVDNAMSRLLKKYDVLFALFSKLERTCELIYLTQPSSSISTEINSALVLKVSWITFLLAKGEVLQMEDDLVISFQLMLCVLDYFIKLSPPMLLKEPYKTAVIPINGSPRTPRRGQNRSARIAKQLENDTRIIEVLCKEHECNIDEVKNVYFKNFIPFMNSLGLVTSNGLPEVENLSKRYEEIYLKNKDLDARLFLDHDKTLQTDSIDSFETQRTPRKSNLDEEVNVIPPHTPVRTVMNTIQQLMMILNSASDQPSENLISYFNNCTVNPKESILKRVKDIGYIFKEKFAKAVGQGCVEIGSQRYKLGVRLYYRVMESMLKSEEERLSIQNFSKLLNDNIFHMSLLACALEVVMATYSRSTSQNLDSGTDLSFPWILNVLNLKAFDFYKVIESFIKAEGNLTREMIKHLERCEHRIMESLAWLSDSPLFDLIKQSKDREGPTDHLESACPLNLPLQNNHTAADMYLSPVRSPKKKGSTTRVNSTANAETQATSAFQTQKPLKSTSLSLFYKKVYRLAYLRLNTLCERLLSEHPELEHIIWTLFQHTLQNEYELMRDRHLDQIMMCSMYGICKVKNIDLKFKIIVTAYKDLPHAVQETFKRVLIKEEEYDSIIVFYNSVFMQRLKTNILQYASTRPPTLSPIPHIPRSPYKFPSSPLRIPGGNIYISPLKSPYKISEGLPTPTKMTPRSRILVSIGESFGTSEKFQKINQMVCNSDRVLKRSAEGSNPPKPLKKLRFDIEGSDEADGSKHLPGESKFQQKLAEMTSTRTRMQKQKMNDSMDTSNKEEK
UniProt Q9UL26: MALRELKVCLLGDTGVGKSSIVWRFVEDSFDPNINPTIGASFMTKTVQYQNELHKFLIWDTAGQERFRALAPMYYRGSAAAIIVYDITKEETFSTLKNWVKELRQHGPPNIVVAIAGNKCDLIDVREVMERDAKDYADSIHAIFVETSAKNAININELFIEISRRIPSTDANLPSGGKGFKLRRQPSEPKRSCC
UniProt Q8TBN0: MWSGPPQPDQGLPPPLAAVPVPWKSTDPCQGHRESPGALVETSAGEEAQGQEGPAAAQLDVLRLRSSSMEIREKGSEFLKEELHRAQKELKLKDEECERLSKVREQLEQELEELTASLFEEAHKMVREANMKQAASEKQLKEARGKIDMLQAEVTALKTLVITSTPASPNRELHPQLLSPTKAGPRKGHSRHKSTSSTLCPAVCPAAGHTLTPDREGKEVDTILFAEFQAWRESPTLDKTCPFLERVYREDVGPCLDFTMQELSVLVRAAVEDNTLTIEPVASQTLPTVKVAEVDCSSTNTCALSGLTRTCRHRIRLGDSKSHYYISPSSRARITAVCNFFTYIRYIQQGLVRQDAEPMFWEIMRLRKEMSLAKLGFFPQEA
UniProt P61019: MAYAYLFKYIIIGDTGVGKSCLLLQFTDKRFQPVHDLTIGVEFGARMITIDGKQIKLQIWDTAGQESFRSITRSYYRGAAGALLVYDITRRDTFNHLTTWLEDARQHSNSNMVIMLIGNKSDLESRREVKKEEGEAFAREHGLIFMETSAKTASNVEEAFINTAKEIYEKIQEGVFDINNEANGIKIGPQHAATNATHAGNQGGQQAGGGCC
UniProt Q9NTZ6: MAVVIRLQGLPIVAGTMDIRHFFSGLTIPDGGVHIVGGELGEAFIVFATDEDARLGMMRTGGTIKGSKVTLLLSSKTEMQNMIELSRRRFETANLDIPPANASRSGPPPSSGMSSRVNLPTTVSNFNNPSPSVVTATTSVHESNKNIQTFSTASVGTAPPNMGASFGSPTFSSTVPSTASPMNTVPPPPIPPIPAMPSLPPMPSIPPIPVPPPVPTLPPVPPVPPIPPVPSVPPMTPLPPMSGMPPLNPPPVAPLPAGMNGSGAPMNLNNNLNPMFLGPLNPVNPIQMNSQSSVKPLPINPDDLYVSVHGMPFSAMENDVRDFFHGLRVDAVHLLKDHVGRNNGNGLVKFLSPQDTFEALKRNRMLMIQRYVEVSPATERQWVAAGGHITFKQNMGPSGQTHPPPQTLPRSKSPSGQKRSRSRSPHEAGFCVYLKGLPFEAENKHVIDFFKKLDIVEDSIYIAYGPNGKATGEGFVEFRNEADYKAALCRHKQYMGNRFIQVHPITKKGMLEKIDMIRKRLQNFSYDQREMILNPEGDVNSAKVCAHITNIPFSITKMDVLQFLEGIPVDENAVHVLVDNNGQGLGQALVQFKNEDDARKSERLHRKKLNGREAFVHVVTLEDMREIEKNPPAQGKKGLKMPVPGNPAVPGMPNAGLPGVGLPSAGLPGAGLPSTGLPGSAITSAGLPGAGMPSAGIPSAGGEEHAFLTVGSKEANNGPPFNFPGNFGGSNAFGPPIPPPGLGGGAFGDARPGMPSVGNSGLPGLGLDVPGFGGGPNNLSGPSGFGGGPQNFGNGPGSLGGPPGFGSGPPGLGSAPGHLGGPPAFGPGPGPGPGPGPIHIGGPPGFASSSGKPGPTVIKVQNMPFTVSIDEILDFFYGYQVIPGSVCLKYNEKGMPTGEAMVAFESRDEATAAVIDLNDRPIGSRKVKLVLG
UniProt P52306: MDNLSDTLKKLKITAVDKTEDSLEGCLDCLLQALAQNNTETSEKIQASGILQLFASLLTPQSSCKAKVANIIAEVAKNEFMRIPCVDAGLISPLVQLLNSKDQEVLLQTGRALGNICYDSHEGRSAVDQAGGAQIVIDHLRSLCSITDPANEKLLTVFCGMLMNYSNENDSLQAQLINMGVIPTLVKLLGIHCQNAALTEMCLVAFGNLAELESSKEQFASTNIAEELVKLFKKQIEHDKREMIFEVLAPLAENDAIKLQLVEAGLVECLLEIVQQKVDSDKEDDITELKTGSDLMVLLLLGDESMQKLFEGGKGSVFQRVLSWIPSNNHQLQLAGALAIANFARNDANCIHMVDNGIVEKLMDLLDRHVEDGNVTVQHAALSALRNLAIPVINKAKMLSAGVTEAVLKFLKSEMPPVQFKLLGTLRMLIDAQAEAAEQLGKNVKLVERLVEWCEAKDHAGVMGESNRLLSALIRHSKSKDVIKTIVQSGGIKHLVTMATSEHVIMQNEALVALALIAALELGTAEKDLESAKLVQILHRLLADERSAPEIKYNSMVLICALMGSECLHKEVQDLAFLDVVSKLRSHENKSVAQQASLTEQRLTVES
UniProt P20340: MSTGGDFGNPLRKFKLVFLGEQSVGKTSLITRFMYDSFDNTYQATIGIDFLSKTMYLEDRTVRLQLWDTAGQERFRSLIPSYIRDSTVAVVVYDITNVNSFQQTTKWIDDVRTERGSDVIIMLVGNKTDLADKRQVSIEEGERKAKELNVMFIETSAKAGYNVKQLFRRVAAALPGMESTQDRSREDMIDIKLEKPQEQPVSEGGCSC
UniProt P51151: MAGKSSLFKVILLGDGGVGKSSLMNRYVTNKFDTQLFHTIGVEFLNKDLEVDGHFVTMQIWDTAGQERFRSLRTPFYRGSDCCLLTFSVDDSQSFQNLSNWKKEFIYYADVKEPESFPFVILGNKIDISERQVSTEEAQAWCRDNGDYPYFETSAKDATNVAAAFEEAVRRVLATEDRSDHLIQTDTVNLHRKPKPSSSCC
UniProt Q92696: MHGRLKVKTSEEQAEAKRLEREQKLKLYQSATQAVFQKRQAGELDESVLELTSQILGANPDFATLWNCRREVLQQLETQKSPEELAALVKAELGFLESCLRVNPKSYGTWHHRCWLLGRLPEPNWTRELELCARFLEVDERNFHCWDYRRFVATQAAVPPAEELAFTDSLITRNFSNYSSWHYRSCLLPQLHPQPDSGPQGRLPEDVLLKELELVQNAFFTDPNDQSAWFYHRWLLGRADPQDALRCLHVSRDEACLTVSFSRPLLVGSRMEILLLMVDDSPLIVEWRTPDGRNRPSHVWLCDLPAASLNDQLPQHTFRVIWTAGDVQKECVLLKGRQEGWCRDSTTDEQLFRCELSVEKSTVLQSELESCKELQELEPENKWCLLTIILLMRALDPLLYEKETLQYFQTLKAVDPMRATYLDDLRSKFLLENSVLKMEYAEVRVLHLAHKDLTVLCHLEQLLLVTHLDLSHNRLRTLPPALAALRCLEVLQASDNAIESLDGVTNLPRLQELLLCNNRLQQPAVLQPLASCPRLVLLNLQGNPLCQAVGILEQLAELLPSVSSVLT

Key:
Test in all cases: log2 fold change, soluble protein after heating vs DMSO (PISA); higher = thermal stabilisation; K562 cells, 10 uM, 30 min; active = over 0.2 and 3.5 SD of the protein, either way, in both replicates (recomputed)
[1] = compound: CC1=C(C=C(C=C1)NC(=O)C2=CC(=CC=C2)C(C)(C)C#N)NC3=CC4=C(C=C3)N=CN(C4=O)C
Outline: (§1)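 K562 cells at 2×10^6 cells/mL were treated for 30 min with 10 μM compound, and aliquots were heated for 3 min over 48°C-58°C before pooling. Extraction used PBS with 0.5% NP-40 at 4°C, and soluble protein was the supernatant after 21,000xg for 90 min, measured by TMTpro 16plex LC-MS/MS with channel sums equalised. Thermal stability values, relative to control samples and from duplicates, are log2 fold changes.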

[2] = compound: CC1=C(C=C(C=C1)NC(=O)C2=CC(=CC=C2)N(C)C)NC(=O)C3=CC=C(C=C3)O
Outline: as §1

[3] = compound: CC1=CC=C(C=C1)SC2=C3C=C(SC3=CN=C2)C(=O)N
Outline: as §1

[4] = compound: CC1=NC(=CC=C1)C2=C(N=C(N2)C(C)(C)C)C3=CC4=NC=CN=C4C=C3
Outline: as §1

[5] = compound: CCCCN(Cc1ccc(C(=O)NO)cc1)C(=O)Nc1ccccc1 [Nexturastat A]
Outline: as §1

[6] = compound: CCCS(=O)(=O)Nc1ccc(F)c(C(=O)c2c[nH]c3ncc(-c4ccc(Cl)cc4)cc23)c1F [vemurafenib]
Outline: as §1

[7] = compound: CCCS(=O)(=O)Nc1ccc(F)c(C(=O)c2c[nH]c3ncc(Cl)cc23)c1F
Outline: as §1

[8] = compound: CCCc1cc(C)[nH]c(=O)c1CNC(=O)c1cc(-c2ccnc(N3CCN(C)CC3)c2)cc2c1cnn2C(C)C
Outline: as §1

[9] = compound: CCN(CC)Cc1ccc2cc(COC(=O)Nc3ccc(C(=O)NO)cc3)ccc2c1 [givinostat]
Outline: as §1

[10] = compound: CCN(CCCOc1ccc2c(Nc3cc(CC(=O)Nc4cccc(F)c4)[nH]n3)ncnc2c1)CCOP(=O)(O)O [barasertib]
Outline: as §1

[11] = compound: CC[C@@H]1C(=O)N(C)c2cnc(Nc3ccc(C(=O)NC4CCN(C)CC4)cc3OC)nc2N1C1CCCC1
Outline: as §1

[12] = compound: CC[C@@H]1C(=O)N(C)c2cnc(Nc3ccc(C(=O)N[C@H]4CC[C@H](N5CCN(CC6CC6)CC5)CC4)cc3OC)nc2N1C(C)C [volasertib]
Outline: as §1

[13] = compound: CC[C@H](C)N1C=C(C2=C(C=C(C=C21)C3=CN=C(C=C3)N4CCNCC4)C(=O)NCC5=C(C=C(NC5=O)C)C)C
Outline: as §1

[14] = compound: CC[C@H](C)[C@@H](C(=O)N[C@@H]([C@@H](C)O)C(=O)N[C@@H](CC(C)C)C(=O)[C@]1(CO1)C)NC(=O)[C@H]([C@@H](C)CC)N(C)C(=O)C [epoxomicin]
Outline: as §1

[15] = compound: CCn1c(C(=O)N(C2CC2)C2CC2)cc2c3c(ncn3C)c(Nc3cc(C)n(C)n3)nc21
Outline: as §1

[16] = compound: CCn1cc(-c2ccnc3[nH]c(-c4cccc(CN(C)C)c4)cc23)c(-c2ccc(NC(=O)N(C)C)cc2)n1
Outline: as §1

[17] = compound: CN(C)CC(=O)Nc1ccc2[nH]c(=O)c3ccccc3c2c1
Outline: as §1

[18] = compound: CN(CCOC1=CC=C(C=C1)C[C@H]2C(=O)NC(=O)S2)C3=CC=CC=N3 (racemic) [rosiglitazone]
Outline: as §1

[19] = compound: CN1C2=C(C3=C1C(=O)N(N=C3)CC4=CC(=CC=C4)N)SC(=C2)S(=O)C
Outline: as §1

[20] = compound: CN1CCC(CNc2ccc3ncc(-c4cccc(OC(F)(F)F)c4)n3n2)CC1
Outline: as §1

Measured: log2 fold change

RAB27A (UniProt P51159)
inactive: [1] -0.008 | [2] -0.02 | [3] 0.006 | [4] 0 | [5] -0.091 | [6] 0.011 | [7] -0.029 | [8] 0.005 | [9] 0 | [10] 0.01 | [11] -0.003 | [12] -0.051 | [13] -0.019 | [14] -0.003 | [15] 0.012 | [16] 0.018 | [17] -0.001 | [18] -0.021 | [19] -0.062 | [20] -0.015

RAC1 (UniProt P63000)
inactive: [1] 0.14 | [2] -0.002 | [3] -0.055 | [4] 0.241 | [5] -0.021 | [6] -0.046 | [7] -0.008 | [8] 0.032 | [9] -0.059 | [10] -0.026 | [11] -0.024 | [12] 0.03 | [13] 0.026 | [14] 0.019 | [16] 0.044 | [17] 0.05 | [19] -0.067
active: [20] 0.35

RALGAPA1 isoform 6 (UniProt Q6GYQ0)
inactive: [1] -0.013 | [2] 0.171 | [3] -0.058 | [4] -0.042 | [5] -0.068 | [6] 0.022 | [7] 0.11 | [8] -0.043 | [9] 0.114 | [10] 0.037 | [11] -0.107 | [12] -0.518 | [13] -0.303 | [14] -0.327 | [15] 0.02 | [17] -0.006 | [18] -0.15 | [19] 0.159

RARS (UniProt P54136)
inactive: [1] 0.005 | [2] 0.006 | [3] -0.011 | [4] -0.048 | [5] 0.325 | [6] -0.018 | [7] 0.058 | [8] 0.075 | [9] 0.016 | [10] 0.037 | [11] 0.059 | [12] -0.172 | [13] 0.072 | [14] -0.085 | [16] 0.107 | [17] 0.013 | [19] 0.26 | [20] -0.111

RB1 (UniProt P06400)
inactive: [1] 0.016 | [2] -0.011 | [3] 0.034 | [4] 0.003 | [5] -0.1 | [6] -0.01 | [7] -0.008 | [8] -0.026 | [9] -0.02 | [10] -0.004 | [11] 0.018 | [12] 0.034 | [13] 0.016 | [14] 0.041 | [16] -0.05 | [17] 0.008 | [19] -0.064
active: [20] -0.265

RAB22A (UniProt Q9UL26)
inactive: [1] -0.005 | [2] 0.023 | [3] 0.002 | [4] -0.035 | [5] 0.012 | [6] -0.002 | [7] 0.001 | [8] -0.01 | [9] -0.009 | [10] -0.015 | [11] 0.058 | [12] 0.045 | [13] -0.056 | [14] -0.031 | [15] 0.029 | [16] -0.074 | [17] -0.026 | [18] 0.003 | [19] -0.054 | [20] 0.037

RANBP2 (UniProt P49792)
inactive: [1] 0.089 | [2] -0.07 | [3] -0.041 | [4] 0.04 | [5] 0.221 | [6] -0.086 | [7] 0.03 | [8] -0.072 | [9] 0.046 | [10] 0.036 | [11] 0.058 | [12] -0.006 | [13] -0.008 | [14] 0 | [16] 0.099 | [17] 0.026 | [19] -0.033 | [20] -0.052

RANBP10 (UniProt Q6VN20)
inactive: [1] -0.064 | [2] -0.002 | [3] -0.008 | [4] 0.026 | [5] -0.007 | [6] -0.036 | [7] -0.08 | [8] 0.015 | [9] -0.13 | [10] 0.001 | [11] 0.021 | [12] -0.063 | [13] -0.002 | [14] 0.112 | [15] -0.092 | [16] -0.071 | [17] 0.024 | [18] 0.113 | [20] -0.016

RBM33 (UniProt Q96EV2)
inactive: [1] -0.024 | [2] -0.001 | [3] -0.014 | [4] 0.014 | [5] 0.021 | [6] -0.019 | [7] 0.022 | [8] 0.022 | [9] 0.077 | [10] 0.037 | [11] -0.101 | [12] -0.105 | [13] 0.035 | [14] 0.022 | [16] -0.005 | [17] -0.025 | [19] 0.023 | [20] 0.004

RAB3IL1 (UniProt Q8TBN0)
inactive: [1] 0.005 | [2] 0.002 | [3] 0.008 | [4] 0.02 | [5] -0.124 | [6] 0.018 | [7] 0.062 | [8] -0.025 | [9] -0.024 | [10] 0.015 | [11] -0.018 | [12] -0.136 | [13] -0.001 | [14] -0.001 | [16] -0.15 | [17] 0.009 | [19] -0.035 | [20] 0.013

RAB2A (UniProt P61019)
inactive: [1] 0.001 | [2] 0.001 | [3] -0.013 | [4] 0.004 | [5] -0.154 | [6] 0.009 | [7] 0.031 | [8] -0.022 | [9] 0.014 | [10] -0.007 | [11] -0.022 | [12] 0.053 | [13] -0.047 | [14] -0.018 | [15] 0.028 | [16] -0.017 | [17] 0.01 | [18] 0.025 | [19] 0.011 | [20] -0.019

RBM12 (UniProt Q9NTZ6)
inactive: [1] 0.016 | [2] -0.101 | [3] 0.057 | [4] 0.116 | [5] -0.085 | [6] 0.058 | [7] 0.136 | [8] 0.008 | [9] 0.062 | [10] 0.122 | [11] -0.181 | [13] 0.114 | [14] 0.087 | [16] -0.049 | [17] 0.053 | [19] -0.033 | [20] -0.139
active: [12] -0.437

RAP1GDS1 isoform 5 (UniProt P52306)
inactive: [1] -0.04 | [2] -0.035 | [3] 0.073 | [4] 0.042 | [5] -0.023 | [6] -0.014 | [7] 0.174 | [8] 0.016 | [9] 0.047 | [10] 0.019 | [11] -0.018 | [12] -0.27 | [13] 0.077 | [14] 0 | [16] -0.008 | [17] -0.017 | [19] -0.012 | [20] -0.002

RAB6A isoform 2 (UniProt P20340)
inactive: [1] 0.01 | [2] 0.021 | [3] 0.031 | [4] -0.054 | [5] 0.03 | [6] -0.039 | [7] 0.008 | [8] -0.003 | [9] -0.011 | [10] -0.021 | [11] -0.007 | [12] 0.048 | [13] -0.021 | [14] -0.047 | [15] 0.01 | [16] -0.054 | [17] -0.036 | [18] -0.002 | [19] -0.043 | [20] 0.076

RBM26 isoform 2 (UniProt Q5T8P6)
inactive: [1] 0.122 | [2] -0.088 | [3] 0.033 | [4] 0.116 | [5] -0.184 | [6] 0.143 | [7] 0.09 | [8] -0.014 | [9] 0.097 | [10] 0.079 | [11] -0.207 | [12] -0.299 | [13] 0.151 | [14] 0.098 | [16] -0.069 | [17] 0.072 | [19] -0.011 | [20] -0.177

RAB9A (UniProt P51151)
active: [20] -0.252
inactive: [1] 0.036 | [2] 0.033 | [3] 0.017 | [4] 0.018 | [5] 0.017 | [6] -0.012 | [7] -0.024 | [8] 0.003 | [9] 0.054 | [10] -0.011 | [11] -0.061 | [12] -0.024 | [13] -0.001 | [14] 0.064 | [16] 0.004 | [17] 0.034 | [19] -0.034

RABGGTA (UniProt Q92696)
inactive: [1] 0.019 | [2] 0.04 | [3] -0.004 | [4] 0.002 | [5] -0.084 | [6] 0.003 | [7] 0.005 | [8] -0.023 | [9] -0.024 | [10] 0.017 | [11] 0.029 | [12] -0.087 | [13] -0.013 | [14] 0.021 | [16] -0.051 | [17] -0.015 | [19] -0.111 | [20] -0.023
